# Data: the RNAGym collection of RNA variant scans (doi:10.1126/science.aae0568)
# Variants at the floor of the assay are shown more often than the library holds them.
# B1: tRNA (parent)
# chain: GUUCCGUUGGCGUAAUGGUAACGCGUCUCCCUCCUAAGGAGAAGACUGCGGGUUCGAGUCCCGUACGGAACG
# Variants of: B1
# Test: yeast fitness relative to wild type (ratio to wild type); higher = fitter; tRNA-Arg(CCU), competitive growth, 37 C, YPD
# Outline: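 A pool of Saccharomyces cerevisiae strains, each with a tRNA-Arg(CCU) gene variant at the native genomic locus, was competed in YPD at 37°C for 24 hours across six parallel replicates. The variants had been chemically synthesised at a 3% per-site mutation rate over 69 sites, and gene amplicons before and after competition were read by 100-nucleotide paired-end sequencing. Darwinian fitness relative to wild type rested on changes in genotype frequencies. Genotypes required ≥ 100 starting reads, and estimates < 0.5 were set to 0.5.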
row,Variant,yeast fitness
1,G12C A57C C66G,≤ 0.5
2,G9A G10A C66U,≤ 0.5
3,U3G G51A,0.701
4,G10A G44A C66U,0.534
5,U32A C33G A43G,≤ 0.5
6,C30U G38C C55G C61U,≤ 0.5
7,C31G A57G A65G A70G,≤ 0.5
8,U35A A42C C46U C66U G67C,≤ 0.5
9,G12A G67C,0.848
10,U7A U16A A21G C29G C34A A65U C66U,≤ 0.5
11,C11G C24U U54C,≤ 0.5
12,G56U U59A C66A,≤ 0.5
13,A37C U47A G58A,≤ 0.5
14,G25A U28A A43U G58A C61U A70G,≤ 0.5
15,G48C C49U C55U,0.663
16,A15G A21G G41A A65C,≤ 0.5
17,C5G U19C A37C A45C C46U C55G,≤ 0.5
18,U3A C5A A45C G50C U64C A70U,≤ 0.5
19,U7C C30U C33A A40U A57C,≤ 0.5
20,G48C G50U G67C A70U,≤ 0.5
21,G6A A20G A37G G68A A69G,≤ 0.5
22,U3G C22G C29A G63C,≤ 0.5
23,U13C C27G U35A A43C,≤ 0.5
24,C34G G48C,0.519

row,Variant,yeast fitness
1,C4G U7G C29A U53A C60G,≤ 0.5
2,A45G C46G U47A C62G A65C,≤ 0.5
3,G10C C27A G56A G67A,≤ 0.5
4,C4G U8C U32A A37C C49G U64C,≤ 0.5
5,C4U C5A A36U G39C C60A G63A G68A,≤ 0.5
6,A15U G52C C60U,≤ 0.5
7,A36U U53A A65U,≤ 0.5
8,G6A U54C C60G,≤ 0.5
9,G10A A20C G38A G41A U47A,≤ 0.5
10,A20C U47A G48C,0.526
11,C4G C11U C24G C27G A65U,≤ 0.5
12,G18A U35A G48C,≤ 0.5
13,C24A U26A C31A C62A,≤ 0.5
14,C5U G51C G56A G58C,≤ 0.5
15,C34G A57G G63C,≤ 0.5
16,A14U A36C A37G,≤ 0.5
17,G9A C11U C60G C66U G68A,≤ 0.5
18,G10U G17A U32C A45C,≤ 0.5
19,U3A C46G,0.982
20,U2A G9C A42C,≤ 0.5
21,C24G C27G A37C G52A G67A,≤ 0.5
22,A21G A45G C46G A70U,≤ 0.5
23,C5G U8G G38A C46A G50A U53C,≤ 0.5
24,C62U G63A U64A,≤ 0.5

row,Variant,yeast fitness
1,G10C A14U U19A C22U G51C,≤ 0.5
2,U19A C27A C46A,0.506
3,C27A C61A,0.67
4,C24U C49U U59G G67U,≤ 0.5
5,C11A G25C C29U A65C,≤ 0.5
6,U53A G63C G67A,≤ 0.5
7,C24U C34U C55U C60U,≤ 0.5
8,C11U A45U,0.951
9,C22G C29A A42C C66U,≤ 0.5
10,U8G A37G G44A A65C,≤ 0.5
11,U8A G18C C24A U32C A69U,0.565
12,U13C A42G A57U U59A A69G,≤ 0.5
13,C5U C24A C33U U47C G63A G67C,≤ 0.5
14,U7A C30U A57G,≤ 0.5
15,U7A C11A G18A C31U C34U U47C C49A A57U,≤ 0.5
16,C11U C24G A43C G63C G67A,≤ 0.5
17,C11U U32A A70C,0.614
18,G12A U28A C31A C33U A37C G50A A65U,≤ 0.5
19,U28G U64C,0.864
20,C24G A40G C66U,0.515
21,G6C U26C A43C A57G C66U,≤ 0.5
22,U2G G23C G58A C61G A70U,≤ 0.5
23,U8A C11U A20C A70U,≤ 0.5
24,U32A C33G C60A,≤ 0.5

row,Variant,yeast fitness
1,C5U A14U G67U G68C,≤ 0.5
2,G10C U13A C55U C61U,≤ 0.5
3,G10U G17A C24A C66G,0.595
4,U2A G6A A40U A69C,≤ 0.5
5,A42C C62U C66U,0.507
6,C5U U16C A43U C49U,≤ 0.5
7,G6A C24U A57G C61G C66U A69U,≤ 0.5
8,U7C U28A C31U,≤ 0.5
9,C11U C27U C31A A42G C49G G51A G68C,≤ 0.5
10,C4U C34G U54G C66U,≤ 0.5
11,U19C A20G G23C G50A,≤ 0.5
12,A14G A15G A42C G52C,≤ 0.5
13,G6A G10C A20G C22U G38C C61G,≤ 0.5
14,C22A C29U A70C,≤ 0.5
15,C24U A36G C55G,≤ 0.5
16,G12C A36U U64A,≤ 0.5
17,C31G G58C,0.88
18,C24U U32G A40U U53C U64G,≤ 0.5
19,U26C C31G A65U G67C,≤ 0.5
20,C22U G41A C55G,≤ 0.5
21,U2A C11G G18A A21U G63C,≤ 0.5
22,G17A A43C C49U U54A G56C,≤ 0.5
23,A15C U35C C55G A70G,≤ 0.5
24,C5G U13A C22G C29G A40U C46U A57C,≤ 0.5

row,Variant,yeast fitness
1,C5G A20G C34A A40G G44A C46G,≤ 0.5
2,A45C G51C U53C,≤ 0.5
3,G9A G51C G52C A69U,≤ 0.5
4,C22G C31U U53A,≤ 0.5
5,G10C C22A C24G A36G G39C C55U C66U,≤ 0.5
6,A14U C55G A57G,≤ 0.5
7,C5A C34U C55A,≤ 0.5
8,U7A A21U C61G C66U A69U,≤ 0.5
9,U26A A36G C49A G67C,≤ 0.5
10,U7A G12C A14G A21C A70G,≤ 0.5
11,A14C A21G G67A,≤ 0.5
12,C11G C61G C62U C66U,≤ 0.5
13,C11U G23A C33G A69C,≤ 0.5
14,U7A C11A G18A C31U C34U G51C G56C,≤ 0.5
15,G12C C29G G48C,≤ 0.5
16,C30G C33A C49A,0.618
17,A20G U47G C49A A69U,≤ 0.5
18,C34G G52A,0.562
19,C11U C34U G41A A45G,≤ 0.5
20,C5U C27U A36G U54A A69U,≤ 0.5
21,C4G C34U C62U A69U,≤ 0.5
22,C5G C30G A36G C62G,≤ 0.5
23,C5A C31G A42C G56A C61G,≤ 0.5
24,G9A U16C U19C C30U G41A U47C,≤ 0.5

row,Variant,yeast fitness
1,G25C C31A G68A,≤ 0.5
2,C22A G41C C66U A70C,≤ 0.5
3,C4G C11G A42G C55U C61A,≤ 0.5
4,C34G G48A A57G,0.631
5,C4G U16A A36C,0.579
6,G6A U32G C49G C55A,≤ 0.5
7,G6C A14G A20C U54C U64A G67A,≤ 0.5
8,A21C C61U A70U,0.623
9,C34A G52C C60G G68C,≤ 0.5
10,C4U G25A G51C,≤ 0.5
11,A14C U19A A21G C31U,≤ 0.5
12,U26A U28A C31U C66G,≤ 0.5
13,C11U C33G G50A A69U,≤ 0.5
14,G18C C29G C34U A45C,≤ 0.5
15,A43U C49G A57G,≤ 0.5
16,C33G A40U G56A,≤ 0.5
17,G12A C30U G39C,≤ 0.5
18,A15G C55A A57U,≤ 0.5
19,C5U C46U C55A G56C,≤ 0.5
20,C4G A14C C27A C31A,≤ 0.5
21,C5G C22A U26C C33G G63A,≤ 0.5
22,C31A C49G A57U,≤ 0.5
23,A45U U53G C60G C61A C66U,≤ 0.5
24,G17A C55G A65G,≤ 0.5

row,Variant,yeast fitness
1,C29U C33G G67A,≤ 0.5
2,U64A C66U A70G,≤ 0.5
3,G6C C49A A70U,≤ 0.5
4,C5G C22U U26G U32A U35A U53A,≤ 0.5
5,C11U C31U U53C C66A G67A A70G,≤ 0.5
6,A14G G23A C29G,≤ 0.5
7,A37G C55A A70U,≤ 0.5
8,C4G G6A G18C U26A G48A,≤ 0.5
9,C5A C11G G41C G48C,≤ 0.5
10,U28C U47A G63A A69U,≤ 0.5
11,A15C C24G A45G U47C,≤ 0.5
12,C5G U7C A14U C24U C46G C61G,≤ 0.5
13,U2C C11A C62G G68A,≤ 0.5
14,U8C G44A U53C,≤ 0.5
15,G25A C29U A57U C62A,≤ 0.5
16,A21U C55A A65C,≤ 0.5
17,C11U C34U C62A C66U,≤ 0.5
18,G6A C49G G50A,≤ 0.5
19,A37C C46G A70C,0.632
20,C11U C29A A36U C49U,≤ 0.5
21,C29A C34A C62U,≤ 0.5
22,G12A U19C G23C C62A,≤ 0.5
23,C27G C55U A65U A70G,≤ 0.5
